Measured values reported in US20080299548A1.
No constants are given. Whether binding was seen depends on the method and setting. Binding seen in cells or lysates may run through a third protein. Some results given as binding are weak or reduced against the parent protein; the word gives no strength. For part of these data: Sequences can lack the tags named with a protein. One block for each binder: values may come before it.

What was measured:
[1] = molecular target: T1, Myc-tagged ECAT15-2 (mouse) (UniProt Q9CWH0); experiment: co-immunoprecipitation and Western blot, FIG. 5 right
T1 sequence: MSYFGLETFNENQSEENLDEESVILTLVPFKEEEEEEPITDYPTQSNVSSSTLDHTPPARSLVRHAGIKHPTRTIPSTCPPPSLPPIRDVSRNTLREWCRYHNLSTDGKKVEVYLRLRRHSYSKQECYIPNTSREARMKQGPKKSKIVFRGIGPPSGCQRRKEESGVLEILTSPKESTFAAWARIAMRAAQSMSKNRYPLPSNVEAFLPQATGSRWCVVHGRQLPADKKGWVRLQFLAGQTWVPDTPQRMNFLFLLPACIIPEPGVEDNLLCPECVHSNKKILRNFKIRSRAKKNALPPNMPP

[2] = molecular target: T1, Myc-tagged ECAT15-2 (mouse); experiment: co-immunoprecipitation with anti-Myc (9E10) from transfected MG1.19 ES cells, Western blot
[3] = molecular target: T2, mouse ECAT15-1 (endogenous, MG1.19 ES cells) (mouse) (UniProt Q8CCG4); experiment: co-immunoprecipitation of endogenous proteins from MG1.19 ES cells with anti-ECAT15-1 serum, Western blot
T2 sequence: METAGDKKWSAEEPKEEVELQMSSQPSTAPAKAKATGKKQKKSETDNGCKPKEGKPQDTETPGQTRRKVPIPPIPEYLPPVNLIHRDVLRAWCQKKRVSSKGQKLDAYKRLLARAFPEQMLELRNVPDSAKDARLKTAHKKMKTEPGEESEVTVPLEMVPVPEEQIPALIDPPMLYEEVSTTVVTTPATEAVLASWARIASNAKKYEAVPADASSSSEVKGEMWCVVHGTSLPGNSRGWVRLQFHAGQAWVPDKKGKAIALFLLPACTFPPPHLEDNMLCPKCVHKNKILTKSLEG

[4] = molecular target: T3, Myc-tagged ECAT15-1 (mouse) (UniProt Q8CCG4); experiment: co-immunoprecipitation with anti-Myc (9E10) from transfected MG1.19 ES cells, Western blot
T3 sequence: T2 sequence

[5] = molecular target: T3, Myc-tagged ECAT15-1 (mouse); experiment: co-immunoprecipitation and Western blot, FIG. 5 middle
[6] = molecular target: T1, Myc-tagged ECAT15-2 (mouse); experiment: co-immunoprecipitation and Western blot, FIG. 5 left
[7] = molecular target: T4, mouse ECAT15-2 (endogenous, MG1.19 ES cells) (mouse) (UniProt Q9CWH0); experiment: co-immunoprecipitation of endogenous proteins from MG1.19 ES cells with anti-ECAT15-2 serum, Western blot
T4 sequence: T1 sequence

[8] = molecular target: T4, mouse ECAT15-2 (endogenous, MG1.19 ES cells) (mouse); experiment: co-immunoprecipitation of endogenous proteins with anti-ECAT15-1 and anti-ECAT15-2 antibodies, FIG. 6

binding [3]: binds
B2: mouse ECAT15-2 (endogenous, MG1.19 ES cells) (protein)
chain: T1 sequence

binding [7]: binds
binding [8]: binds
B4: mouse ECAT15-1 (endogenous, MG1.19 ES cells) (protein)
chain: T2 sequence

Second part, the binder before the results:

B1: Flag-tagged ECAT15-2 (protein, not shown: small tags and cut ends)
chain: T1 sequence
binding [1]: binds
binding [2]: binds

B3: Flag-tagged ECAT15-1 (protein, not shown: small tags and cut ends)
chain: T2 sequence
binding [4]: binds
binding [2]: binds
binding [5]: binds
binding [6]: binds
